Binding data for 1 molecule are collected here from publication PMC7994200.

Protein sequences, listed by entry. Tags and fused reporters are not part of them. Residues count along the entry.
UniProt Q9NZQ7, residues 19-290: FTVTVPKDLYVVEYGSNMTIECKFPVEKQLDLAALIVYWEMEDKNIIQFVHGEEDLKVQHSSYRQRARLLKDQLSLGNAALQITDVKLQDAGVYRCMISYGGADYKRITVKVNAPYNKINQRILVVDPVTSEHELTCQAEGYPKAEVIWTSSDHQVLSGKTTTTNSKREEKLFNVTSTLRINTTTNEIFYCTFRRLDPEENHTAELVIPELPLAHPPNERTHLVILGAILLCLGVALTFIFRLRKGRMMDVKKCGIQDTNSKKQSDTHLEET

These are yes or no findings as the source states them, for the method shown. In cells and extracts the contact can be indirect. Some binding calls cover weakened binding; strength is not graded here.

For the assay, the target named is PD-L1 (human (endogenous in 786-0 and ACHN)) (UniProt Q9NZQ7). The assay can be described thus: co-IP; 500 ug of total cell lysate with 20 ul rabbit anti-PD-L1 antibody at 4 C overnight, protein G dynabeads 2 h at 4 C, western blot; 786-0 cells (E.V or HuR-overexpressing) and ACHN cells (control or HuR knock-down).

B1: CKLF-like MARVEL transmembrane domain containing protein 6 (CMTM6) (protein, UniProt Q9NX76 1-183)
chain: MENGAVYSPTTEEDPGPARGPRSGLAAYFFMGRLPLLRRVLKGLQLLLSLLAFICEEVVSQCTLCGGLYFFEFVSCSAFLLSLLILIVYCTPFYERVDTTKVKSSDFYITLGTGCVFLLASIIFVSTHDRTSAEIAAIVFGFIASFMFLLDFITMLYEKRQESQLRKPENTTRAEALTEPLNA
B1: the binding entry is listed as “binds”.
